Measurements published in patent US20240043534A1.

Molecular target: N-terminal methyltransferase domain of the Zika virus bifunctional NS5 enzyme (MT ZIKV) (Zika virus)
Assay: SPR (FIG. 7C)

B1: Z2C4 ZIKV LRT-Fab (Fab, V domains shown)
VH: EVQLVESGGGLVQPGGSLRLSCAASGFNVYYSSIHWVRQAPGKGLEWVAYIYPSSGSTYYADSVKGRFTISADTSKNTAYLQMNSLRAEDTAVYYCARSWSPYGMDYWGQGTLVTVSS
VL: DIQMTQSPSSLSASVGDRVTITCRASQSVSSAVAWYQQKPGKAPKLLIYSASSLYSGVPSRFSGSRSGTDFTLTISSLQPEDFATYYCQQWYDSLITFGQGTKVEIKR
How did the binding turn out when B1 was run?
The binding was “binds”.

B2: Z2G6 ZIKV LRT-Fab (Fab, V domains shown)
VH: EVQLVESGGGLVQPGGSLRLSCAASGFNVYYYYIHWVRQAPGKGLEWVASIYSYSGYTYYADSVKGRFTISADTSKNTAYLQMNSLRAEDTAVYYCAREGVWWEDEFYPGLDYWGQGTLVTVSS
VL: DIQMTQSPSSLSASVGDRVTITCRASQSVSSAVAWYQQKPGKAPKLLIYSASSLYSGVPSRFSGSRSGTDFTLTISSLQPEDFATYYCQQSWSSLFTFGQGTKVEIKR
With B2 as the binder, how does the binding read?
The binding was “binds”.

Results are given in words; binding and its absence hold for the method and conditions named. A result given as binding can be weak or reduced; the word gives no strength.
